Screen size: about 340,000 compounds; about 6,200 (1.8%) were called active. The inconclusive results got no clear call from the source; some entries with a clear call stand among them for comparison. Calls follow the shape of the dose curve; as a rule, active = well fitted activation curve with a large enough effect; inconclusive = small, poorly fitted or top-dose-only effect; inactive = no such curve, though single readings can be large or run the other way. Potencies beside an inconclusive call are fits to weak or partial responses and may not hold up.
assay: A quantitative high throughput screen for small molecules that induce DNA re-replication in SW480 colon adenocarcinoma cells.; also: nearly all actives have a fitted effect of over 55% in size; as to re-replication activation: % of control where 0% means no effect; conditions: Hoechst DNA content imaging, 48 h; re-replication activation: at 46.1 µM (top of the series) unless noted
How it was run: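 DNA re-replication was detected as more nuclei of elevated Hoechst intensity after 48 hr exposure to compound (23 nL pinned per well of 250 cells).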
Potency is read from the fitted curve at half-maximal effect.

Row | Compound | re-replication activation | Potency
1 | CC(C)NC(=S)NCc1cccnc1 | inactive: -1.87% | –
2 | CCSc1nnc(NC(=O)[C@@H](NC(=O)c2ccccc2F)C(C)C)s1 | inactive: 18.4% | –
3 | CC(C)(C)OC(=O)N1CCCC(C(=O)Nc2cccc(C(=O)NCCCCc3ccccc3)c2)C1 (centres undefined) | – | inconclusive: 1.64 µM [activator, partial curve, poor fit]
4 | COc1ccc(S(=O)(=O)N2CCOCC2)cc1NC(=O)COC(=O)c1ccc(C)s1 | – | inconclusive: 2.59 µM [activator, single point]
5 | CC(C1CC1)N(Cc1ccccc1)C(=S)Nc1ccccc1Cl (centres undefined) | inactive: 22.1% | –
6 | COc1ccc(C(=O)COC(=O)[C@@H](NS(=O)(=O)c2ccccc2)C(C)C)cc1 | inactive: 11.8% | –
7 | O=S(=O)(c1ccc(Cl)s1)N1CCN(C/C=C/c2ccccc2)CC1 | – | inconclusive: 25.9 µM [activator, single point]
8 | COc1ccc(NC(=O)C2CCCN(c3c4c(nc5ncnn35)CCC4)C2)cc1 (centres undefined) | – | inconclusive: 20.6 µM [activator, single point]
9 | O=C(CN1CCN(C(=O)c2ccccc2)CC1)Nc1ccc(Cl)cc1F | – | inconclusive: 20.6 µM [activator, single point]
10 | Cc1c(NC(=O)CCC2CCCCC2)cc(C(=O)N2CCOCC2)cc1[N+](=O)[O-] | – | inconclusive: 32.6 µM [activator, partial curve, poor fit]
11 | CC1(C)CC2=C(CO1)C(=S)NC(c1ccccc1)N2CC1CCCO1 (centres undefined) | – | inconclusive: 18.4 µM [activator, single point]
12 | Cn1cc(/C=C(\C#N)C(=O)Nc2cccc([N+](=O)[O-])c2)c2ccccc21 | – | inconclusive: 5.17 µM [activator, full curve, poor fit]
13 | CN(C)c1ccc(C(=O)N2CCNC(=O)C2CC(=O)Nc2ccc(F)cc2)cc1 (centres undefined) | – | inconclusive: 0.0073 µM [activator, full curve, poor fit]
14 | CCN(CC)c1ccc(-c2c(C#N)c(N)nc(OC)c2C#N)cc1 | – | inconclusive: 23.1 µM [activator, single point]
15 | Cc1cc(C)c2c(CCl)cc(=O)oc2c1 | – | active: 3.66 µM
16 | NC(=O)N/N=C/c1c(O)ccc2oc3c(c12)CCCC3 | – | inconclusive: 18.4 µM [activator, single point]
17 | O=C(CN1CCCCC1)Nc1cc(Cl)ccc1Cl | inactive: -1.84% | –
18 | COc1cc2ccccc2cc1C(=O)N(CCN(C)C)c1nc2c(C)cccc2s1 | – | inconclusive: 29.1 µM [activator, single point]
19 | Cc1ccc(S(=O)(=O)N(C)c2ccccc2C(=O)Nc2ccc(F)cc2F)cc1 | – | inconclusive: 0.82 µM [activator, full curve, poor fit]
20 | CCCCCCCCC(=O)O | – | inconclusive: 0.82 µM [activator, partial curve, poor fit]
21 | Cc1nc(-c2ccc(C(=O)Nc3ccccc3F)cc2)cs1 | inactive: -7.92% | –
22 | COC(=O)c1cc(S(=O)(=O)N2CCN(c3ccccc3F)CC2)c[nH]1 | inactive: -7.07% | –

A different layout for some results above.
Row	Compound	re-replication activation	Potency
7	O=S(=O)(c1ccc(Cl)s1)N1CCN(C/C=C/c2ccccc2)CC1	–	inconclusive: 25.9 µM [activator, single point]
16	NC(=O)N/N=C/c1c(O)ccc2oc3c(c12)CCCC3	–	inconclusive: 18.4 µM [activator, single point]

Continued:

Row | Compound | re-replication activation | Potency
23 | Cc1ccc(/C=C/C2=NN(C)C(=O)CC2)cc1 | – | inconclusive: 0.291 µM [activator, full curve, poor fit]
24 | COc1ccc(/C=C/c2cc(C(F)(F)F)[nH]c(=O)n2)cc1OC | – | active: 16.4 µM
25 | Cc1ccc(C)c(Cn2nc(-c3ccccc3)ccc2=O)c1 | – | inconclusive: 32.6 µM [activator, partial curve, poor fit]
26 | Cc1cc(C)c(NC(=O)CNC(=O)CNC(=O)C2CCCCC2)c(C)c1 | inactive: 5.01% | –
27 | CCCCN(CC)CCCNC(=O)c1cn(CC)c2ccc(S(=O)(=O)N3CCc4ccccc4C3)cc2c1=O | – | inconclusive: 32.6 µM [activator, partial curve, poor fit]
28 | Cc1cc(C)cc(NC(=O)NNC(=O)c2cc3occc3[nH]2)c1 | – | inconclusive: 29.1 µM [activator, single point]
29 | Cc1ccc(NC(=O)N2CCN(C/C=C/c3ccccc3)CC2)cc1 | inactive: -10.2% | –
30 | O=C(N/N=C/c1cccc(O)c1)c1cc(C2CC2)nc2ccccc12 | – | inconclusive: 29.1 µM [activator, single point]
31 | CCOC(=O)c1c(C)oc2c1c1c(c3ccccc32)OCN(Cc2ccccn2)C1 | inactive: -0.649% [at 9.22 µM] | –
32 | COc1cc(C2(c3ccc(O)c(OC)c3)C(=O)Nc3c(C)cc(Br)cc32)ccc1O | inactive: -12.4% | –
33 | O=C(OCc1ccccc1)/C(=C/c1cccc(Br)c1)NC(=O)c1ccco1 | – | inconclusive: 20.6 µM [activator, single point]
34 | Clc1ccc(CN(Cc2ccccc2)C(c2cccs2)c2nnnn2C2CCCC2)cc1 (centres undefined) | – | inconclusive: 16.4 µM [activator, partial curve, poor fit]
35 | COc1ccc(C)cc1NC(=O)C(OC(=O)CNC(=O)c1cc(C)cc(C)c1)c1ccccc1 (centres undefined) | – | inconclusive: 29.1 µM [activator, single point]
36 | COC(=O)C1=CN(Cc2ccc(OC)c(OC)c2)C=C(C(=O)OC)C1c1cccc(F)c1 | – | inconclusive: 29.1 µM [activator, single point]
37 | CSc1c(CC(=O)NCCCO)n(Cc2ccccc2)c2ccccc12 | – | inconclusive: 0.731 µM [activator, partial curve, poor fit]
38 | CCOC(=O)C(=Cc1ccccc1OC)C(=O)OCC | – | inconclusive: 29.1 µM [activator, single point]
39 | CSc1cccc(NC(=O)C2CCCN(S(=O)(=O)c3cccs3)C2)c1 (centres undefined) | inactive: 0.0413% | –
40 | O=C(CCC(=O)N1CCCC1)Nc1ccc([N+](=O)[O-])cc1 | – | inconclusive: 29.1 µM [activator, partial curve, poor fit]
41 | CC1(C)N=C(N)NC(Nc2ccc(Cl)cc2)=N1 | inactive: 1.78% | –
42 | CC(C)C[C@H]1CN=C(N(C)C)N1CC1CCCC1 | – | inconclusive: 0.58 µM [activator, partial curve, poor fit]
43 | CC[N+]1=C(C)C(C)(C)c2cc(C)ccc21 | inactive: 1.28% | –
44 | O=C(O)/C(=C\c1c(C(=O)O)[nH]c2cc(Cl)cc(Cl)c12)c1ccccc1 | – | inconclusive: 1.26 µM [activator, single point]

From PubChem BioAssay AID624297 (National Center for Advancing Translational Sciences (NCATS), 2012)
